Reference: patent US7425557B2, “Inhibitors of glycogen synthase kinase 3” (Novartis Vaccines and Diagnostics, Inc., priority 1998, dated 2008)
Some entries share one result that the patent states for a list of compounds. For at least one compound, name, drawing or mass did not settle the structure.

By UniProt entry, the sequences of proteins in these tests, tags left out. Where a name states a change or a piece, a line headed by the entry shows the natural chain unless it says otherwise.
UniProt P49841: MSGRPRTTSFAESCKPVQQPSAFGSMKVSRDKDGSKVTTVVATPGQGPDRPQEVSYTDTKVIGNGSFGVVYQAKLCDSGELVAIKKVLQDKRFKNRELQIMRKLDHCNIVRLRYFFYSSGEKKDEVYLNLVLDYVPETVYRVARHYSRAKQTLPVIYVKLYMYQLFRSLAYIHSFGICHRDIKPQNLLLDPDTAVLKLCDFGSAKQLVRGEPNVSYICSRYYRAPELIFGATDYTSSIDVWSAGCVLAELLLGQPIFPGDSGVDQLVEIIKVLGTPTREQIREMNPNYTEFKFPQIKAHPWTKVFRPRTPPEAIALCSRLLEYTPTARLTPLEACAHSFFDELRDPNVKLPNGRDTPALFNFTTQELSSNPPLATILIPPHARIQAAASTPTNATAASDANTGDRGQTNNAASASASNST

Molecular target: human GSK3β (Homo sapiens, UniProt P49841)
Test: Screening for GSK3 inhibitory activity using a cell-free assay
Format: biochemical
Settings: read-out: IC50 with respect to GSK3
Protocol: This amount represents the amount of radiolabeled phosphate incorporated into the peptide substrate.
The captured radiolabeled peptide substrate can be quantitated in a scintillation counter using known methods. […] If an inhibitor is present during the reaction, GSK3 activity will be reduced, and a smaller quantity of radiolabeled phosphate will thus be incorporated into the peptide substrate.
Pyrimidine and pyridine compounds of the present invention were dissolved in DMSO, then tested for inhibition of human GSK3β (the nucleotide sequence for human GSK3β appears in GenBank under Accession No. L33801).
While the reaction was proceeding, streptavidin-coated Labsystems “Combiplate 8” capture plates (Labsystems, Helsinki, Finland) were blocked by incubating them with 300 μl/well of PBS containing 1% bovine serum albumin for at least one hour at room temperature. The blocking solution was then removed by aspiration, and the capture plates were filled with 100 ul/well of stopping reagent (50 μM ATP/20 mM EDTA).
When the three hour enzyme reaction was finished, triplicate 100 μl aliquots of each reaction mix were transferred to three wells containing stopping solution, one well on each of the three capture plates, and the well contents were mixed well. […] Finally, 200 μl of Microscint-20 scintillation fluid was added to each well of the plate. The plates were coated with plate sealers, then left on a shaker for 30 minutes. Each capture plate was counted in a Packard TopCount scintillation counter (Meridian, Conn.) and the results were plotted as a function of compound concentration.

| Molecule | IC50 [nM] |
| --- | --- |
| O=[N+]([O-])c1cn(CCCNc2nccc(-c3ccc(O)cc3)n2)cn1 [4-(2-{[3-(4-nitroimidazolyl)propyl]amino}pyrimidin-4-yl)phenol] | ≤ 1000 |
| Oc1ccc(-c2ccnc(NCCCn3cnc4ccccc43)n2)cc1 [4-{2-[(3-benzimidazolylpropyl)amino]pyrimidin-4-yl}phenol] | ≤ 10000 |
| N#Cc1ccc(NCCNc2ncc(-c3ncc[nH]3)c(-c3ccc(Cl)cc3Cl)n2)nc1 [6-[(2-{[4-(2,4-dichlorophenyl)-5-imidazolylpyrimidin-2-yl]amino}ethyl)amino]pyridine-3-carbonitrile] | ≤ 1000 |
| Nc1nc2ccccc2n1CCCNc1nccc(-c2ccc(O)cc2)n1 [4-(2-{[3-(2-aminobenzimidazolyl)propyl]amino}pyrimidin-4-yl)phenol] | ≤ 10000 |
| 6-[(2-{[4-(2,4-dichlorophenyl)-5-imidazolylpyrimidin-2-yl]methylamino}ethyl)amino]pyridine-3-carbonitrile | ≤ 1000 |
| {2-[(6-amino-5-nitro(2-pyridyl))amino]ethyl}[4-(2,4-dichlorophenyl)-5-imidazolylpyrimidin-2-yl]methylamine | ≤ 1000 |
